Data published in paper PMC9986243.
Numbering of substitutions follows the chain as printed. Names may count otherwise. No constants are given. Whether binding was seen depends on the method and setting. Binding seen in cells or lysates may run through a third protein. Some binding calls cover weakened binding; strength is not graded here. Tags and fused reporters may be left off the sequences shown. Values belong to the binder of their own block, whether it stands above or below them.

Molecular target: T1, Myc-1-186aa of PHF2 (truncation containing PHD domain) (human) (UniProt O75151)
T1 sequence: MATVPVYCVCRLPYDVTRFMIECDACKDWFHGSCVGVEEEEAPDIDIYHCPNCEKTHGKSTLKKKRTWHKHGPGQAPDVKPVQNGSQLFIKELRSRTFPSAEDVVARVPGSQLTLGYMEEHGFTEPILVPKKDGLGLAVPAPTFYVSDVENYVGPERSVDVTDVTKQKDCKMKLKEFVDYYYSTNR
Experiment: co-IP; 293T cells co-transfected with a Myc-tagged and a Flag-tagged construct; whole-cell lysate; anti-Flag, anti-Myc or anti-IgG immunoprecipitates, protein A agarose, 4 °C; immunoblot

binding: binds
B1: Flag-353-1096aa of PHF2, WT (domain or fragment, UniProt O75151 353-1096)
chain: RRLKLGSLTQFPNFETACWYMGKHLLEAFKGSHKSGKQLPPHLVQGAKILNGAFRSWTKKQALAEHEDELPEHFKPSQLIKDLAKEIRLSENASKAVRPEVNTVASSDEVCDGDREKEEPPSPIEATPPQSLLEKVSKKKTPKTVKMPKPSKIPKPPKPPKPPRPPKTLKLKDGGKKKGKKSRESASPTIPNLDLLEAHTKEALTKMEPPKKGKATKSVLSVPNKDVVHMQNDVERLEIREQTKSKSEAKWKYKNSKPDSLLKMEEEQKLEKSPLAGNKDNKFSFSFSNKKLLGSKALRPPTSPGVFGALQNFKEDKPKPVRDEYEYVSDDGELKIDEFPIRRKKNAPKRDLSFLLDKKAVLPTPVTKPKLDSAAYKSDDSSDEGSLHIDTDTKPGRNARVKKESGSSAAGILDLLQASEEVGALEYNPSSQPPASPSTQEAIQGMLSMANLQASDSCLQTTWGAGQAKGSSLAAHGARKNGGGSGKSAGKRLLKRAAKNSVDLDDYEEEQDHLDACFKDSDYVYPSLESDEDNPIFKSRSKKRKGSDDAPYSPTARVGPSVPRQDRPVREGTRVASIETGLAAAAAKLSQQEEQKSKKKKSAKRKLTPNTTSPSTSTSISAGTTSTSTTPASTTPASTTPASTSTASSQASQEGSSPEPPPESHSSSLADHEYTAAGTFTGAQAGRTSQPMAPGVFLTQRRPSASSPNNNTAAKGKRTKKGMATAKQRLGKILKIHRNGKLLL

binding: binds
B2: Flag-353-1096aa of PHF2, S655A (domain or fragment, UniProt O75151 353-1096)
chain: B1 chain with S303A
